PubChem BioAssay AID720505 – Drosophila RNAi Screening Center | 2013

Aim: 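Genes needed for store-operated calcium entry in fly cells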 (primary screen)
Cell system: Drosophila S2R+ cells
Reagent: long dsRNA against Drosophila genes
Conditions: thapsigargin (2 µM) in calcium-free buffer to empty internal stores, then 2 mM calcium added back
Detection: 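Stores emptied by 2 µM thapsigargin without calcium, then 2 mM calcium re-added; fluo-4 fluorescence followed by FLIPR in 384-well plates, per-well averaged endpoint, raw; two screen passes, some wells retested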
Reading the numbers: calcium signal and retest calcium signal: higher = more calcium entry after store depletion
Hit rule: 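About 1500 genes called as lowering calcium entry, by varying amounts, judged against per-plate control wells with STIM1 as positive and Rho1 as negative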
Meaning of the calls: active = called as lowering calcium entry; inactive = not called
The screen tested about 20,000 reagents; below is a random part of those with a known target gene and a result. Of all reagents, about 2,100 (10%) were called active. 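Raw plate signals without normalisation; calls rest on control-based scores that were not deposited; replicate 2 separates called from uncalled poorly.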 Entries without a mark were called inactive. The numbers tell different reagents against one gene apart. Names joined by + are all predicted targets of the reagent. Reagent sequences are not shown. The record does not give: the amount of reagent, the time to read-out.

Silencing of RunxA (GeneID 4379817) #1 came out at: calcium signal, replicate 1 = 91.9; calcium signal, replicate 2 = 95.5.
Knock-down of RunxA (GeneID 4379817) #2 came out at: calcium signal, replicate 1 = 115; calcium signal, replicate 2 = 79.8.
After knock-down of RunxA (GeneID 4379817) #3, the record shows calcium signal, replicate 1 = 74 (active); calcium signal, replicate 2 = 114; retest calcium signal, replicate 1 = 6692; retest calcium signal, replicate 2 = 142.
RunxA (GeneID 4379817) #4 scored calcium signal, replicate 1 = 84.2; calcium signal, replicate 2 = 179.
Silencing of CG13482 (GeneID 39577) came out at: calcium signal, replicate 1 = 105; calcium signal, replicate 2 = 127.
With knock-down of SerRS-m (GeneID 41862), the record shows calcium signal, replicate 1 = 130; calcium signal, replicate 2 = 189.
Scr (GeneID 40833) #1 showed calcium signal, replicate 1 = 84.3; calcium signal, replicate 2 = 142.
Scr (GeneID 40833) #2 showed calcium signal, replicate 1 = 148; calcium signal, replicate 2 = 144.
Depletion of CG10384 (GeneID 37567) #1 came out at: calcium signal, replicate 1 = 129; calcium signal, replicate 2 = 7700.
After knock-down of CG10384 (GeneID 37567) #2, the screen gave calcium signal, replicate 1 = 65.4 (active); calcium signal, replicate 2 = 137.
Silencing of wwk (GeneID 34886) came out at: calcium signal, replicate 1 = 86.6; calcium signal, replicate 2 = 148.
For CG6790 (GeneID 41388) the deposit lists calcium signal, replicate 1 = 101; calcium signal, replicate 2 = 143.
With knock-down of MTF-1 (GeneID 39089) #1 the results were calcium signal, replicate 1 = 73.8; calcium signal, replicate 2 = 82.2; retest calcium signal, replicate 1 = 6111; retest calcium signal, replicate 2 = 124.
MTF-1 (GeneID 39089) #2 scored calcium signal, replicate 1 = 122; calcium signal, replicate 2 = 123.
Silencing of CG42525 (GeneID 8674097) came out at: calcium signal, replicate 1 = 6053; calcium signal, replicate 2 = 124.
Cpr (GeneID 33883) showed calcium signal, replicate 1 = 111; calcium signal, replicate 2 = 205.
With knock-down of Sec22 + CG13358 the results were calcium signal, replicate 1 = 130; calcium signal, replicate 2 = 170.
For CG8834 (GeneID 36356), the entry reads calcium signal, replicate 1 = 101; calcium signal, replicate 2 = 189.
Against CG32795 (GeneID 31270) #1 the deposit lists calcium signal, replicate 1 = 121; calcium signal, replicate 2 = 188.
For CG32795 (GeneID 31270) #2, the values are calcium signal, replicate 1 = 111; calcium signal, replicate 2 = 161.
With knock-down of CG42758 (GeneID 10178900) the results were calcium signal, replicate 1 = 85.8; calcium signal, replicate 2 = 119.
Against CG15236 (GeneID 35595) #1, the values are calcium signal, replicate 1 = 84.9; calcium signal, replicate 2 = 85.6.
With knock-down of CG15236 (GeneID 35595) #2 the results were calcium signal, replicate 1 = 218; calcium signal, replicate 2 = 103.
With knock-down of CG15236 (GeneID 35595) #3 the results were calcium signal, replicate 1 = 111; calcium signal, replicate 2 = 136.
Depletion of CG30356 (GeneID 246562) resulted in: calcium signal, replicate 1 = 60.5 (active); calcium signal, replicate 2 = 73.4.
Alp11 (GeneID 32496) scored calcium signal, replicate 1 = 90.3; calcium signal, replicate 2 = 121.
Mis12 (GeneID 38762) scored calcium signal, replicate 1 = 97.3; calcium signal, replicate 2 = 55.7.
Against CG3609 (GeneID 33421), the entry reads calcium signal, replicate 1 = 165; calcium signal, replicate 2 = 171.
For Zpr1 (GeneID 31851) the deposit lists calcium signal, replicate 1 = 109; calcium signal, replicate 2 = 109.
After knock-down of CG13449 (GeneID 39695), the record shows calcium signal, replicate 1 = 129; calcium signal, replicate 2 = 155.
baz (GeneID 32703) gave calcium signal, replicate 1 = 109; calcium signal, replicate 2 = 145.
CG8654 (GeneID 37275) showed calcium signal, replicate 1 = 145; calcium signal, replicate 2 = 106.
Knock-down of TTLL12 (GeneID 35732) came out at: calcium signal, replicate 1 = 113; calcium signal, replicate 2 = 97.4.
For CG11029 (GeneID 33804), the entry reads calcium signal, replicate 1 = 119; calcium signal, replicate 2 = 138.
With knock-down of l(3)neo43 (GeneID 41851), the screen gave calcium signal, replicate 1 = 68.1; calcium signal, replicate 2 = 134.

5 successive entries already listed:
CG42758 (GeneID 10178900): calcium signal, replicate 1 = 85.8; calcium signal, replicate 2 = 119
CG15236 (GeneID 35595) #1: calcium signal, replicate 1 = 84.9; calcium signal, replicate 2 = 85.6
CG15236 (GeneID 35595) #2: calcium signal, replicate 1 = 218; calcium signal, replicate 2 = 103
CG15236 (GeneID 35595) #3: calcium signal, replicate 1 = 111; calcium signal, replicate 2 = 136
CG30356 (GeneID 246562): calcium signal, replicate 1 = 60.5 (active); calcium signal, replicate 2 = 73.4
